Laboratory results from the supplement of paper PMC12823440, “Inhibitors supercharge kinase turnover through native proteolytic circuits” (Nature, 2025).
Where a name gives a salt, the structure may show the parent alone. The list shows a part of the results. Hit calls seldom repeat between salt and free forms of one compound.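 In K562 cells expressing nanoluciferase-fused kinases, luminescence was recorded at 4 h intervals between 2 and 18 h, normalized as percent of control with DMSO at 100% and a positive control at 0%. A significant (2 sigma) signal drop marks a time point as decreased. The authors' rule for a hit is not shown and takes in more than the number of time points.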

Chains of the proteins cited; added tags and fusions are not shown.
UniProt P36888, whole entry: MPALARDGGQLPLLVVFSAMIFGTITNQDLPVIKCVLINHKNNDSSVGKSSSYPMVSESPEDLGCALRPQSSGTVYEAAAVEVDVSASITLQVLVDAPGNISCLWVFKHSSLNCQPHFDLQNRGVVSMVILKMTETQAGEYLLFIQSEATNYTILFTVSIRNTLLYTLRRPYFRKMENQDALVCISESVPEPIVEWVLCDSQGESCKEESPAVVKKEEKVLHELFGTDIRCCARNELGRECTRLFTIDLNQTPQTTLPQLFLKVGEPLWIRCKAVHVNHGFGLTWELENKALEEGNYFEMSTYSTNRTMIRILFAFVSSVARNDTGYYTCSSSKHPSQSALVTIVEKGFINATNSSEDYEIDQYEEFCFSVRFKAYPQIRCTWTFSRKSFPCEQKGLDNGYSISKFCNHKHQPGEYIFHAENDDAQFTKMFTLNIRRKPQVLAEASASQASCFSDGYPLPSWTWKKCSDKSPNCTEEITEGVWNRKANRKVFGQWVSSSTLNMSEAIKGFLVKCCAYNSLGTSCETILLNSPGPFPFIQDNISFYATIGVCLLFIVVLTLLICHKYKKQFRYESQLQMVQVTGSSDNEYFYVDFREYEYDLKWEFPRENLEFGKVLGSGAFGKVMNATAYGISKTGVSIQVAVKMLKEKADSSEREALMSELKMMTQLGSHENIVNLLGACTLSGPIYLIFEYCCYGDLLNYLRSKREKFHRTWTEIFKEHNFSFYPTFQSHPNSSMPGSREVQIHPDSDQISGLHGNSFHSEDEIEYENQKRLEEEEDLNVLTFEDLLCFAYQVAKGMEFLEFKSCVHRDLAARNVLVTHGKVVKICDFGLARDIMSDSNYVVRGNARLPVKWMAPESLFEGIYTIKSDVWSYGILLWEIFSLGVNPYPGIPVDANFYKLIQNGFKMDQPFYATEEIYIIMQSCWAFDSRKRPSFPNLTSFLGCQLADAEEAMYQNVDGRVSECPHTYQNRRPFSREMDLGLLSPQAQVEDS
UniProt P06241, whole entry, looked up: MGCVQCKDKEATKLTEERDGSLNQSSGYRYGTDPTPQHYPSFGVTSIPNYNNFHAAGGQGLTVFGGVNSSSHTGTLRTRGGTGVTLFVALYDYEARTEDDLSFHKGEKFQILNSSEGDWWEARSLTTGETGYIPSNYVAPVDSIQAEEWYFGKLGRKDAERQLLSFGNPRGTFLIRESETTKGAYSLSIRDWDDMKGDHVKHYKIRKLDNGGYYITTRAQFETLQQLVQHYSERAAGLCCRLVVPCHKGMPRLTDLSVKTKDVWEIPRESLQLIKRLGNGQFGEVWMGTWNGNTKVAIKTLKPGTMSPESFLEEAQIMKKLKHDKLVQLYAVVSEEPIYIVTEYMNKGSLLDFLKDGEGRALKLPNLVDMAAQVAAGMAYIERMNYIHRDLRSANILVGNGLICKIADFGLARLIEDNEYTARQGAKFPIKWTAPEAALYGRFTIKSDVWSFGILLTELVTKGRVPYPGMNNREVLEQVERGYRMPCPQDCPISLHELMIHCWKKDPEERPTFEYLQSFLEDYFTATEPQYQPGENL

Target: FLT3 (UniProt P36888)
Assay: number of time points (of 5) at which kinase-Nluc abundance scored as decreased, DMSO-normalised (count); higher = more persistent destabilization
Conditions: K562; 2-18 h

| Structure (SMILES) | number of time points |
| --- | --- |
| COc1cccc(OC)c1C(=O)OCc1cc(O)ccc1O[C@@H]1O[C@H](CO)[C@@H](O)[C@H](O)[C@H]1O [Curculigoside] (10 µM) | 0 |
| Nc1ncnc2c1c(-c1ccc(Oc3ccccc3)cc1)nn2C1CCCC1 (2.5 µM) | 0 |
| CC#CC(=O)N1CC[C@@H](n2c(=O)n(-c3ccc(Oc4ccccc4)cc3)c3c(N)ncnc32)C1 [Tirabrutinib] (10 µM) | 0 |

Target: FYN (UniProt P06241)
Assay: as above
Conditions: K562; 2-18 h

| Structure (SMILES) | number of time points |
| --- | --- |
| CCc1c(C(=O)NNC(=O)C(O)c2cc(F)cc(F)c2)ccc(O)c1C (stereo unspecified) (10 µM) | 0 |
| COc1cc2ncnc(Nc3ccc(Cl)cc3F)c2cc1OC (10 µM) | 0 |
| COc1cc(/C=C/C(=O)NCC(O)c2ccc(O)cc2)ccc1O (stereo unspecified) [N-Feruloyloctopamine] (2.5 µM) | 0 |
| NC(=O)c1nc(Nc2ccccc2)sc1NC(=O)C1CCCCC1 (10 µM) | 0 |
| O=c1cc(CN2CCOCC2)occ1OCCCCCSc1ccnc2cc(C(F)(F)F)ccc12 (10 µM) | 0 |
| O=C(O)CCC(=O)Nc1ccc(Br)cn1 [Bikinin] (10 µM) | 0 |
| CC[C@@H](Oc1nc(Oc2cc(C)cc(-c3cccc(CN)c3)c2)c(F)cc1F)C(=O)O (10 µM) | 0 |
| C[C@]1(O)CCN(c2nc(N3C[C@H](O)[C@@H](O)C3)cc(C(F)(F)F)c2C#N)C1 (10 µM) | 0 |
| COc1ccccc1-c1cc(Nc2cccc(CS(N)(=O)=O)c2)ncn1 (10 µM) | 0 |
| CC(=O)c1c(C)cc2cccc(O)c2c1O [Nepodin] (10 µM) | 0 |
| NC(=O)c1ccc2[nH]ccc2c1 (10 µM) | 0 |
| COc1cc2c(cc1OC)CN(S(=O)(=O)c1ccc(OC)c(N3CCN(C(=O)c4ccc(F)cc4C(F)(F)F)CC3)c1)CC2 (10 µM) | 0 |
| OCCn1cc(-c2ccc3c(c2)CC/C3=N\O)c(-c2ccncc2)n1 (10 µM) | 0 |
| C[C@@H]1CC[C@@H](Nc2nc(NC(C)(C)C)ncc2C(N)=O)C[C@H]1O (10 µM) | 0 |
| CCc1cc2c(cc1N1CCC(N3CCOCC3)CC1)C(C)(C)c1[nH]c3cc(C#N)ccc3c1C2=O [Alectinib] (10 µM) | 0 |
| COCCNc1nc2ccc(C#CC3(O)CCCCC3)cc2n1-c1ccnc(N)n1 (10 µM) | 0 |
| Cc1[nH]c(/C=C2\C(=O)Nc3ccccc32)c(C)c1CCC(=O)O [Orantinib] (10 µM) | 0 |
| Nc1cc(C(F)(F)F)c(-c2cc(N3CCOCC3)nc(N3CCOCC3)n2)cn1 [Buparlisib (Hydrochloride)] (2.5 µM) | 0 |
| CCN1CCN(Cc2ccc(Nc3ncc(F)c(-c4cc(F)c5nc(C)n(C(C)C)c5c4)n3)nc2)CC1 [Abemaciclib (methanesulfonate)] (10 µM) | 0 |

| Structure (SMILES) | number of time points |
| --- | --- |
| Cc1ccc2cc(-c3c(C)ccc(C(=O)c4c(-c5ccccc5)n(C)n(-c5ccccc5)c4=O)c3N)ccc2n1 (2.5 µM) | 0 |
| FC(F)(c1ccc2ncccc2c1)c1nnc2ccc(-c3ccncc3)nn12 (10 µM) | 0 |
| O=C1N[C@@H](Cc2c[nH]c3ccccc23)C(=O)N2CCC[C@@H]12 [Brevianamide F] (10 µM) | 0 |
| Cc1nc2sccn2c(=O)c1CCN1CCC(=C(c2ccccc2)c2ccc(F)cc2)CC1 (10 µM) | 0 |
| O=c1[nH]c(=O)n([C@@H]2O[C@H](CO)[C@@H](O)[C@@H]2O)cc1/C=C/Br [Sorivudine] (10 µM) | 0 |
| COc1cc2nccc(Oc3ccc(NC(=O)NC4CC4)c(Cl)c3)c2cc1C(N)=O [Lenvatinib (mesylate)] (10 µM) | 0 |
| CN1C(=O)N[C@H](Cc2c[nH]c3c(Cl)cccc23)C1=O [Necrostatin 2] (10 µM) | 0 |
| CCN1CCN(Cc2ccc(Nc3ncc(F)c(-c4cc(F)c5nc(C)n(C(C)C)c5c4)n3)nc2)CC1 [Abemaciclib] (2 µM) | 0 |
| Cc1ccc2nc(NCCN)c3ncc(C)n3c2c1 (2.5 µM) | 0 |
| CNC(=O)c1c(F)cccc1Nc1nc(Nc2cc3c(cc2OC)CCN3C(=O)CN(C)C)nc2[nH]ccc12 (10 µM) | 0 |
| Cn1nccc1Nc1nccc(-c2ccn([C@H](CO)c3ccc(Cl)c(F)c3)c(=O)c2)n1 [Ravoxertinib hydrochloride] (10 µM) | 0 |
| CN(C)CCSSCCNC(=O)C1CCN(C(=O)CSc2ccc(Cl)cc2)CC1 (10 µM) | 0 |
| CNC(=O)c1cc(COc2nnc(Nc3ccc(Cl)cc3)c3ccoc23)ccn1 [Telatinib] (10 µM) | 0 |
| NCCNS(=O)(=O)c1cccc2c(Cl)cccc12 [A-3 (hydrochloride)] (10 µM) | 0 |
| O=C(Nc1ccc(CN2CCOCC2)cc1)c1ccc(-c2cccc(Cl)c2)o1 (10 µM) | 0 |
| CCN1CCN(Cc2ccc(-c3cc4c(N[C@H](C)c5ccccc5)ncnc4[nH]3)cc2)CC1 (2.5 µM) | 3 |
| COc1cccc(OC)c1C(=O)OCc1cc(O)ccc1O[C@@H]1O[C@H](CO)[C@@H](O)[C@H](O)[C@H]1O [Curculigoside] (10 µM) | 0 |
| Nc1ncnc2c1c(-c1ccc(Oc3ccccc3)cc1)nn2C1CCCC1 (2.5 µM) | 0 |
| CC#CC(=O)N1CC[C@@H](n2c(=O)n(-c3ccc(Oc4ccccc4)cc3)c3c(N)ncnc32)C1 [Tirabrutinib] (10 µM) | 0 |
